Structures are written as SMILES. Some of the results follow. These are further read-outs of the screen, such as a control signal, another cell line or another target. No call is given for them. Most of these compounds were active or inconclusive in the main read-out, so they are no random draw. The note in brackets gives the kind of curve behind each potency; many fits are weak.

The values below come from PubChem BioAssay AID2685 (National Center for Advancing Translational Sciences (NCATS), 2010).

The experiment is described as follows: qHTS Assay for Lipid Storage Modulators in Drosophila S3 Cells.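 For cell number change: cells counted by Cell Tracker Red CMTPX staining in the red channel.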 Conditions: BODIPY lipid droplet fluorescence, 18-24 h; for cell number change: measured here: cell count max response, cells fed with added oleic acid. The gist of the method: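 Drosophila S3 cells loaded with oleic acid (400 uM, as added) and compounds at several concentrations; lipid droplets imaged by 488-nm laser-scanning cytometry, 500–530 nm intensity and object ratio to cell channel. Percent activity normalized to 20 uM Triacsin C.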

The mark [1] stands for this setting: measured here: lipid fluorescence (Fed channel) AC50, cells fed with added oleic acid.
The mark [2] stands for this setting: measured here: cell number channel AC50, cells fed with added oleic acid.

`O=C1/C(=C\c2ccc(O)cc2)SC(=S)N1/N=C/c1ccc(O)cc1`: the cell number change was -12.7%. The half-maximal activity concentration (AC50) under setting [1] is 9.2 µM [falling, partial curve].

Consider `Cc1cc(C)n2nc(SCC(=O)c3ccc[nH]3)nc2n1`, for which the cell number change was found to be 15.1%. In addition, under setting [1], the AC50 is 1.46 µM [rising, full curve].

With `CCc1ccc(Nc2nnc(SCC(=O)Nc3sccc3C(N)=O)s2)cc1`, the cell number change is 8.07%. Besides, the AC50 under setting [1] is 1.03 µM [rising, full curve, poor fit].

As to `Cc1ccc(/C=C2/SC(=S)N(CCC(=O)N3CCOCC3)C2=O)cc1`, the half-maximal activity concentration (AC50) under setting [1] was 29.1 µM [rising, single point].

Turning to `C=CCN1/C(=C2/SC(=S)N(C)C2=O)Sc2ccccc21`, the cell number change was -2.38%. The AC50 under setting [1] is 9.2 µM [falling, partial curve].

Regarding `COc1ccc(S(=O)(=O)Nc2ccccc2C(F)(F)F)cc1`, the cell number change amounted to 5.54%.

For `CCOC(=O)c1ccc(CC2S/C(=C(\C#N)C(C)=O)NC2=O)cc1` (stereo not drawn), the AC50 is 6.51 µM [falling, single point] under setting [2] and 1.46 µM [falling, full curve] under setting [1].

For `CNCCCOc1ccc(C)cc1OC`, the cell number change came out at 21.7%. Moreover, under setting [1], the AC50 is 4.11 µM [rising, partial curve].

In the case of `COc1ccc(NC(=O)CN(C)C(=O)c2oc3c(ccc4ccccc43)c2C)cc1`, the cell number change was 10.3%. Further, the AC50 under setting [1] is 0.092 µM [rising, full curve, poor fit].

Turning to `CCOC(=O)c1c(C)[nH]c(C(=O)OCC(=O)Nc2sccc2C(N)=O)c1C`, the cell number change is -52.3%. For the same molecule, the half-maximal activity concentration (AC50) under setting [2] was 16.4 µM [falling, single point]. For the same molecule, under setting [1], the AC50 was 20.6 µM [falling, partial curve].

Consider `Cc1ccc(C)c(OCCC(=O)NCCc2ccc(S(N)(=O)=O)cc2)c1`, for which the cell number change was 7.8%. The AC50 under setting [2] was 0.411 µM [rising, single point]. Under setting [1], the half-maximal activity concentration (AC50) is 1.64 µM [rising, partial curve].

`Cc1ccc(SCCNC(=O)c2ccccc2F)cc1`: the cell number change worked out at 19.4%. Besides, the AC50 under setting [1] is 18.4 µM [rising, single point].

For the molecule `CN(C)C(=O)c1c(-c2ccccc2)oc2ccc(O)cc12`, the cell number change was determined as 0.136%. Also, the AC50 under setting [1] is 3.26 µM [rising, full curve, poor fit].

With `CC(C)n1c(SCC(=O)Nc2ccccc2N2CCCCC2)nc2c1c(=O)n(C)c(=O)n2C`, the cell number change was found to be 13.8%.

Regarding `Cc1ccc(S(=O)(=O)N2CCCC2C(=O)O)cc1` (stereo not drawn), the cell number change is 31.1%. Besides, the AC50 under setting [2] was 29.1 µM [rising, single point].

Turning to `COc1ccc(Nc2nnc(SCC(=O)/C=C3/N(C)c4ccccc4C3(C)C)s2)cc1`, the cell number change is -50.4%. Besides, the AC50 under setting [2] was 1.64 µM [falling, single point]. Moreover, the half-maximal activity concentration (AC50) under setting [1] is 20.6 µM [falling, single point].

As for `NC(=O)c1ccc(NC(=O)COC(=O)C2(c3cccc(F)c3)CCCC2)cc1`, the cell number change is 66.4%. Under setting [2], the AC50 is 29.1 µM [rising, single point]. Besides, the AC50 under setting [1] was 18.4 µM [rising, single point].

On to `Cn1c(=O)c2c(n(Cc3ccccc3)c1=O)NC(=O)C2CC(=O)NCc1cccc(Cl)c1` (stereo not drawn), for which the AC50 under setting [2] was 0.731 µM [falling, single point].

Consider `Cc1ccc(C(=O)Nc2ccc(S(=O)(=O)NC3=NCCCCC3)cc2)c(C)c1`, for which the cell number change is 14.5%.

With `CCOC(=O)c1ccc(CNC(=O)Cn2nnc(-c3ccccc3)n2)o1`, the cell number change was 81.8%. Further, the concentration at half-maximal activity (AC50) under setting [2] was 1.84 µM [rising, full curve]. Besides, the AC50 under setting [1] is 6.51 µM [rising, partial curve, poor fit].

For the molecule `CCN(CC(=O)Nc1ccc2c(c1)OCO2)CC(=O)Nc1ccccc1C(F)(F)F`, the cell number change was determined as 1.65%. For the same molecule, the half-maximal activity concentration (AC50) under setting [1] is 29.1 µM [rising, single point].

Take `O=C(/C=C/c1ccccc1)c1ccc(NC2=NCCCS2)cc1`: the cell number change was -0.984%. Moreover, under setting [1], the AC50 is 2.31 µM [rising, single point].

Consider `Cc1ccn(CCNC(=O)C2CCC(=O)N(Cc3ccc(Cl)cc3)C2)n1` (stereo not drawn), for which the cell number change is -22.8%. Besides, the AC50 under setting [1] is 7.31 µM [falling, single point].

With `COc1ccc(NC(=O)Cc2nc3ccccc3[nH]2)cc1`, the cell number change was 2.13%. Further, under setting [1], the half-maximal activity concentration (AC50) is 3.66 µM [rising, partial curve].

With `COC(=O)c1ccc2[nH]c(C(C)(C)O)c(C)c2c1`, the cell number change was 9.39%.

As for `O=C(NCc1ccco1)c1cnn2c(C(F)F)cc(-c3ccccc3)nc12`, the cell number change was -19.2%. In addition, the concentration at half-maximal activity (AC50) under setting [1] was 20.6 µM [falling, single point].

For the molecule `COc1ccccc1N/N=C/c1c(CO)cnc(C)c1O`, the cell number change turned out to be 90.6%. Also, the AC50 under setting [2] was 9.2 µM [rising, partial curve]. Further, under setting [1], the concentration at half-maximal activity (AC50) is 2.59 µM [rising, partial curve].

On to `CCC(CO)NCc1ccc2c(c1)n(C)c(=O)n2C` (stereo not drawn), for which the cell number change was -5.22%. The concentration at half-maximal activity (AC50) under setting [1] is 0.116 µM [falling, full curve].

Take `C=CCn1c(SCC(=O)NC2CC2)nc2ccccc2c1=O`: the cell number change was -16.3%. Under setting [1], the half-maximal activity concentration (AC50) was 0.0058 µM [falling, full curve, poor fit].

Take `Cc1ccc(/C=C2\SC(=S)N(CCCC(=O)N3CCOCC3)C2=O)cc1`: the cell number change is -10.5%. Besides, the AC50 under setting [1] was 29.1 µM [falling, single point].

With `O=C(Cc1cccs1)NCCN1CCOCC1`, the cell number change was -40.7%. Moreover, the concentration at half-maximal activity (AC50) under setting [2] was 16.4 µM [falling, single point]. Also, the AC50 under setting [1] is 4.61 µM [falling, full curve].

On to `CCOC(=O)CC(=O)CSc1nc2ccccc2c(=O)n1-c1ccc(C(=O)NCCOC)cc1`, for which the cell number change was determined as 23%. Moreover, the AC50 under setting [2] was 2.06 µM [rising, full curve, poor fit]. Also, the concentration at half-maximal activity (AC50) under setting [1] is 2.59 µM [rising, full curve].

As to `Cc1ccc(C(=O)NC(=S)Nc2ccc(N3CCOCC3)cc2)cc1C`, the cell number change is -14.6%. The AC50 under setting [1] is 0.794 µM [falling, full curve, poor fit].

Take `CC(C)[C@H](NS(=O)(=O)c1ccc(Cl)cc1)C(=O)OCC(=O)c1c(N)n(C)c(=O)n(C)c1=O`: the concentration at half-maximal activity (AC50) under setting [1] is 18.4 µM [falling, partial curve].

Consider `CC(=O)N1C(c2ccccc2)CC(=O)OC1c1ccc2c(c1)OCO2` (stereo not drawn), for which the cell number change was found to be 27.7%. The half-maximal activity concentration (AC50) under setting [2] is 3.66 µM [rising, full curve, poor fit]. For the same molecule, under setting [1], the AC50 was 6.51 µM [rising, full curve].

As to `O=C(CN1C(=O)NC2(CCCC2)C1=O)NCC1CCCO1` (stereo not drawn), the cell number change was found to be 15.3%.

In the case of `CC(=O)N1CCN(Cc2nc3cc(NC(=O)NC4CCCCC4)ccc3n2C)CC1`, the cell number change is 7.91%. Under setting [2], the AC50 is 0.58 µM [rising, single point].

With `Cc1cccc(OCC(=O)Nc2nnc(S(=O)(=O)N3CCCCC3)s2)c1`, the cell number change worked out at 9.8%. Under setting [1], the AC50 is 10.3 µM [rising, partial curve].

As for `COc1ccccc1NS(=O)(=O)c1cccc(C(=O)NCc2ccccn2)c1`, the cell number change amounted to 44.7%. Moreover, under setting [2], the AC50 was 5.62 µM [rising, full curve]. For the same molecule, the half-maximal activity concentration (AC50) under setting [1] is 11.2 µM [rising, partial curve].

Turning to `CC(C)(C)c1ccc(C2C(C(=O)c3ccco3)=C(O)C(=O)N2CC2CCCO2)cc1` (stereo not drawn), the cell number change amounted to 6.09%.

For the molecule `CC(=O)Nc1ccc(NC(=O)c2cccc3c2-c2ccccc2C3=O)cc1`, the cell number change came to 8.1%. Besides, the AC50 under setting [1] was 0.146 µM [falling, full curve, poor fit].

Consider `CNC(=S)N/N=C/c1cn(Cc2c(F)cccc2Cl)c2ccccc12`, for which the cell number change is -8.71%. The AC50 under setting [1] was 2.31 µM [rising, full curve].

As for `O=S(=O)(Nc1cccc(-n2cnnn2)c1)c1cccc(Cl)c1`, the cell number change is 1.42%. Also, the half-maximal activity concentration (AC50) under setting [1] was 23.1 µM [falling, single point].

In the case of `N#CCSc1nnc(Cc2cccs2)n1C1CCCCC1`, the cell number change was -24.4%. For the same molecule, under setting [1], the AC50 was 0.103 µM [falling, full curve, poor fit].

For the molecule `COc1ccc(-c2cc(C(=O)Nc3ccc(C(N)=O)cc3)c3ccccc3n2)cc1`, the cell number change was 25.2%.

As to `Cc1n[nH]c(=S)n1/N=C/c1cccc(OCc2ccccc2)c1`, the cell number change is -13.1%.

On to `Cc1c(Cc2ccccc2)c(=O)oc2cc(OCC(=O)NCC(O)c3ccccc3)ccc12` (stereo not drawn), for which the cell number change was -21.9%. The half-maximal activity concentration (AC50) under setting [1] was 29.1 µM [falling, single point].

As to `OC1(C2(O)CC(c3ccccc3)ON2)CCCCC1` (stereo not drawn), the cell number change was -15.6%.

For `COc1cc(NC(=O)CSc2nc(C3CC3)nc3ccccc23)cc(OC)c1`, the cell number change came out at 9.57%.

Regarding `COc1ccc(C2=NOC(C(=O)O)C2)cc1` (stereo not drawn), the cell number change amounted to 25.3%. For the same molecule, the AC50 under setting [1] was 20.6 µM [rising, single point].

Take `COc1ccc(S(=O)(=O)Cc2ccc(C(=O)NCCCN(C)c3ccccc3)o2)cc1`: the cell number change is -18.4%. Further, under setting [1], the AC50 was 29.1 µM [falling, single point].

As for `O=C(Nc1ccccc1C(=O)O)c1ccc(NC(=O)C2CCCO2)cc1` (stereo not drawn), the cell number change was found to be 35.2%. Further, under setting [1], the AC50 was 29.1 µM [rising, partial curve].

On to `Cc1ccc(C(=O)C2=C(O)C(=O)N(Cc3cccnc3)C2c2ccc(N(C)C)cc2)o1` (stereo not drawn), for which the cell number change is -7.69%.

`COc1cc2cnc(-c3ccccc3)c(-c3cccc(C(F)(F)F)c3)c2cc1OC`: the concentration at half-maximal activity (AC50) under setting [1] is 0.82 µM [falling, single point].

Take `CCOC(=O)c1ccc(N=c2ssnc2Cl)cc1`: the cell number change is -19%.

For `CC(=O)Nc1ccc2c(c1)OCCOCCOc1cc(NC(C)=O)ccc1OCCOCCOCCO2`, the cell number change was -16%. Also, under setting [1], the AC50 was 4.11 µM [rising, partial curve].

For `CN(C)C(CN=C1NS(=O)(=O)c2ccccc21)c1ccco1` (stereo not drawn), the cell number change is 6.67%. For the same molecule, the AC50 under setting [1] is 0.461 µM [rising, full curve, poor fit].

On to `Cc1ccc(C2(C)NC(=O)N(CC(=O)NC3CCCCC3)C2=O)cc1` (stereo not drawn), for which the cell number change is -19.4%. In addition, the AC50 under setting [2] was 1.84 µM [falling, partial curve, poor fit]. Also, the AC50 under setting [1] was 1.46 µM [falling, partial curve].

As to `CCOC(=O)c1sc(-c2ccc(OC)cc2)cc1N`, the cell number change is -10.9%.

For the molecule `COc1ccc(N2CCN(C(=O)Cc3nn(C)c(=O)c4ccccc34)CC2)cc1`, under setting [2], the AC50 is 0.411 µM [rising, single point].

Take `COc1ccccc1C(=O)Oc1ccc(C(C)C)cc1`: the cell number change was -5.95%. For the same molecule, the concentration at half-maximal activity (AC50) under setting [1] is 0.0731 µM [rising, full curve, poor fit].

For the molecule `N#CCSc1nnc(COc2cccc3ccccc23)n1-c1cccc(Cl)c1`, the cell number change is -37.7%. In addition, the concentration at half-maximal activity (AC50) under setting [2] was 10.3 µM [falling, partial curve, poor fit]. Also, the AC50 under setting [1] was 29.1 µM [falling, single point].
